Measurements from PubChem BioAssay AID493014 (National Center for Advancing Translational Sciences (NCATS), 2011).
The list shows a part of the results. The main result of the screen is listed elsewhere. These columns were measured beside it and carry no call. Most of these compounds were active or inconclusive in the main read-out, so they are no random draw. Words in brackets tell the shape of the fitted curve; partial curves, single points and poor fits give uncertain potencies.

Experiment: qHTS Assay to Find Inhibitors of Chronic Active B-Cell Receptor Signaling
Conditions: ABC-DLBCL IkBa-CBG/CBR reporter, luminescence ratio (green luciferase fused to IkBa over red control in TMD8 lymphoma cells), 4 h
In short: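 Concentration-response series (up to 46 uM) were applied to TMD8 dual-reporter cells for 4 h at 37C with doxycycline. Green/red ratio, after filter-overlap correction, defined %Activity; red signal alone was normalised to basal cells and zero luminescence.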

[1] = measured here: CBR red luminescence, cell number
[2] = measured here: IkBa-CBG green luminescence

Row | SMILES | AC50 [1] | AC50 [2]
1 | Nc1cc(-c2ccc(Cl)cc2)nn1S(=O)(=O)c1cccc2nsnc12 | 14.6 µM [falling, single point] | –
2 | O=C(CNCCC1=CCCCC1)Nc1ccccc1N1CCCCC1 | 29.1 µM [falling, single point] | –
3 | COc1ccc(-n2cc(CNCCc3cscn3)c(-c3ccccc3Cl)n2)cc1 | 0.1 µM [rising, full curve, poor fit] | –
4 | COc1ccc(P(=O)(COc2ccc([N+](=O)[O-])cc2)c2ccc(OC)cc2)cc1 | 29.1 µM [falling, partial curve, poor fit] | –
5 | O=C(CSc1nnnn1-c1ccccc1)Nc1ccc(N2CCOCC2)cc1 | 35.5 µM [rising, single point] | –
6 | CC(C)CN=C(NS(=O)(=O)c1ccccc1)C(Cl)(Cl)Cl | 10.3 µM [falling, partial curve] | –
7 | CCN1C(=O)c2cccc3c(S(=O)(=O)N(C(C)=O)c4ccc(OC(C)=O)cc4)ccc1c23 | 25.9 µM [rising, single point] | 9.2 µM [falling, single point]
8 | CCn1nc(C(=O)OC(C(=O)c2c[nH]c3ccccc23)c2ccccc2)c2ccccc2c1=O (centres undefined) | 3.66 µM [falling, single point] | –
9 | COc1ccc(C(=O)OCc2cc(=O)n3ccsc3n2)cc1F | 25.9 µM [rising, single point] | –
10 | Cc1ccc2c(c1)C(=O)C(=O)N2CC1COc2ccccc2O1 (centres undefined) | 7.08 µM [rising, full curve] | 8.91 µM [falling, partial curve]
11 | O=S(=O)(c1ccc(Br)cc1)N1CCN=C1SCc1cccnc1 | 2.82 µM [rising, partial curve, poor fit] | –
12 | COc1ccc(Cl)cc1NC(=O)c1cc(-c2ccco2)on1 | 0.794 µM [rising, full curve, poor fit] | –
13 | COc1ccccc1-c1nnc(NC(=O)OCC(C)C)s1 | 0.316 µM [rising, full curve, poor fit] | –
14 | CC1(C)CC(=O)C(C=NCCN2CCNC2=O)=C(O)C1 | 32.6 µM [rising, partial curve, poor fit] | –
15 | COC1=Cc2c(ccc3ccc(=O)oc23)OC1(C)C | 2.91 µM [rising, partial curve, poor fit] | –
16 | CCOC(=O)N1CCC(=NNC(=O)NC2CCCCC2)CC1 | 35.5 µM [falling, single point] | –
17 | C/C(=N\Nc1ccccn1)c1ccc(OC(F)F)cc1 | 8.91 µM [rising, partial curve] | –
18 | COc1cc(C(=O)NCCOc2ccccc2C)c(Br)c(OC)c1OC | 18.4 µM [rising, partial curve, poor fit] | –
19 | COc1ccc(N(C(=O)/C=C\C(=O)Nc2ccc(Cl)cc2)C(C(=O)NCc2ccco2)c2ccc(C)cc2)cc1 (centres undefined) | 3.55 µM [falling, partial curve, poor fit] | –
20 | COc1cc(/C=N/NC(N)=O)ccc1OCC(=O)N1C(C)CCCC1C (centres undefined) | 12.6 µM [rising, single point] | –
21 | O=C(C(Cc1ccccc1)n1cccc1)N1CCN(c2ncccn2)CC1 (centres undefined) | 2.06 µM [falling, partial curve, poor fit] | –
22 | COc1nc(Nc2cccc(C(F)(F)F)c2)nc(OC)n1 | 1.12 µM [rising, partial curve] | –

Row | SMILES | AC50 [1] | AC50 [2]
23 | Cc1ccc(C(C(=O)NCc2ccco2)N(CCc2ccccc2)C(=O)Cn2nnc3ccccc32)o1 (centres undefined) | 25.1 µM [falling, single point] | –
24 | COC(=O)c1cccc(Oc2nc3c(c(=O)n(C)c(=O)n3C)n2C(C)C)c1 | 4.61 µM [rising, partial curve] | –
25 | CN1CCN(C(=S)Nc2ccc(Cl)cc2)CC1 | 11.2 µM [rising, partial curve] | –
26 | O=C(NNC(=S)Nc1ccccc1)c1cccs1 | 1.84 µM [falling, full curve] | –
27 | Cc1ccc(C(=O)NCCc2ccccc2)cc1 | 7.94 µM [falling, partial curve] | –
28 | Cc1ccccc1CNC(=O)c1ccccc1NS(C)(=O)=O | 14.1 µM [rising, partial curve, poor fit] | –
29 | COc1cc(Cl)c(C)cc1NC(=O)c1cc(S(=O)(=O)N(C)C)ccc1N1CCCC1 | 4.11 µM [rising, full curve, poor fit] | –
30 | COc1cccc(N2CC(O)=C(c3nc4ccccc4c(=O)[nH]3)C2=N)c1 | 35.5 µM [falling, single point] | 2.24 µM [falling, full curve]
31 | CCOc1ccc(-c2nnn(CC#N)n2)cc1OC | 29.1 µM [rising, single point] | 29.1 µM [falling, single point]
32 | COCc1c(C(=O)Nc2ccc3nc(N4CCOCC4)sc3c2)oc2ccccc12 | 14.6 µM [falling, partial curve, poor fit] | –
33 | CC(=O)Nc1sc2c(c1C#N)CCN(Cc1ccccc1)C2 | 35.5 µM [falling, single point] | –
34 | COc1ccccc1/C=C/C(=O)c1ccc(NC(C)=O)cc1 | 10.3 µM [falling, partial curve, poor fit] | –
35 | O=[N+]([O-])c1cc(S(=O)(=O)N2CCCCCC2)ccc1F | 29.1 µM [falling, single point] | –
36 | Cc1nc(C2COc3ccccc3O2)sc1C(=O)O (centres undefined) | 15.8 µM [falling, single point] | –
37 | CCC(=O)Nc1ccc(C(=O)COC(=O)C(CCSC)NC(=O)COc2ccccc2)cc1 (centres undefined) | 11.6 µM [rising, partial curve, poor fit] | –
38 | COc1cccc(CNc2ccc3c(c2)CCC3)c1 | 18.4 µM [rising, partial curve, poor fit] | –
39 | COc1ccc(C(=O)c2sc(Nc3ccccc3F)nc2N)cc1 | 14.1 µM [falling, partial curve] | –
40 | O=C(Nc1ccccc1N1CCCCC1)c1ccccc1F | 22.4 µM [rising, single point] | –
41 | CN(CC(=O)Nc1ccc([N+](=O)[O-])cc1Br)Cc1c(F)cccc1Cl | 10 µM [rising, partial curve, poor fit] | –
42 | O=C(Cn1c(CCCO)nc2ccccc21)Nc1ccccc1-c1ccccc1 | 20 µM [rising, partial curve, poor fit] | –
43 | C=CCNC(=O)NC(=O)COC(=O)CNS(=O)(=O)c1ccc(F)c(F)c1F | 35.5 µM [falling, single point] | –
44 | O=C(NCC1(c2ccccc2)CCCC1)c1ccccc1 | 14.6 µM [rising, partial curve, poor fit] | –

A second format for some results above.

| Row | SMILES | AC50 [1] | AC50 [2] |
| --- | --- | --- | --- |
| 24 | COC(=O)c1cccc(Oc2nc3c(c(=O)n(C)c(=O)n3C)n2C(C)C)c1 | 4.61 µM [rising, partial curve] | – |
| 25 | CN1CCN(C(=S)Nc2ccc(Cl)cc2)CC1 | 11.2 µM [rising, partial curve] | – |
| 26 | O=C(NNC(=S)Nc1ccccc1)c1cccs1 | 1.84 µM [falling, full curve] | – |

Next part.

Row | SMILES | AC50 [1] | AC50 [2]
45 | CC(C)CCNC(=O)CCc1nnc2ccc(N3CCC(C)CC3)nn12 | 0.631 µM [rising, full curve, poor fit] | –
46 | CCc1ccc(NC(=O)CSc2nc(=O)n3cc(C)ccc3n2)cc1 | 0.731 µM [rising, full curve, poor fit] | –
47 | COc1ccc(C2=Nn3c(nnc3-c3ccccc3Cl)SC2)cc1OC1CCCC1 | 20.6 µM [falling, partial curve] | 4.61 µM [falling, partial curve, poor fit]
48 | O=C(Nc1ccc(Cl)c(Cl)c1)c1ccc(Cl)c(Cl)c1 | 35.5 µM [rising, single point] | –
49 | COC(=O)C1=C(C(=O)OC)C(c2ccccc2O)c2sc(=O)[nH]c2S1 (centres undefined) | 25.9 µM [falling, single point] | –
50 | CC1(C)CC(=O)C=C(NNC(=O)c2ccccc2)C1 | 29.1 µM [falling, single point] | –
51 | CN1CCN(c2ccc(NC(=O)CSc3ccccc3)cc2F)CC1 | 29.1 µM [falling, single point] | –
52 | COc1ccc(C(C)=O)cc1COc1ccc(F)cc1 | 0.708 µM [rising, partial curve, poor fit] | –
53 | Cc1ccccc1-c1n[nH]c(=S)n1/N=C/C=C/c1ccco1 | 3.98 µM [falling, full curve, poor fit] | –
54 | CC(C)CCOc1ccc(C2=NNC(=O)CC2)cc1 | 6.51 µM [rising, partial curve] | –
55 | Cc1nc2ccccn2c1-c1csc(Nc2ccc(C(=O)O)cc2)n1 | 7.08 µM [falling, partial curve, poor fit] | –
56 | COc1ccc(/C=C/c2c([N+](=O)[O-])c(=O)n(C)c(=O)n2C)cc1 | 10 µM [falling, partial curve, poor fit] | –
57 | Oc1cccc(/C=N/Nc2cc(N3CCOCC3)nc(N3CCOCC3)n2)c1 | 16.4 µM [falling, single point] | –
58 | O=C(NCc1ccco1)c1cc2ccccc2c(=O)o1 | 14.1 µM [falling, single point] | –
59 | O=C(CSc1ncccc1-c1nc2ccccc2[nH]1)NC1CC1 | 2.24 µM [falling, partial curve] | –
60 | CCn1c(SCC(=O)c2cc(C)n(-c3ccc(C(=O)OC)cc3)c2C)nnc1-c1cccnc1 | 8.2 µM [rising, single point] | –
61 | NC(=O)c1cccc(-c2cc(Nc3ccc(OC(F)(F)F)cc3)ncn2)c1 | 0.891 µM [rising, full curve, poor fit] | –
62 | Cc1noc(C)c1COC(=O)c1cnc(Cl)c(Cl)c1 | – | 35.5 µM [falling, single point]
63 | CCCCCCSC1=C(C#N)C(=O)NC2(CCCCC2)S1 | 20.6 µM [rising, single point] | –
64 | CCN(CC)S(=O)(=O)c1ccc2c(c1)nc(SCc1nc3ccsc3c(=O)[nH]1)n2CC | 35.5 µM [falling, single point] | –
